# In all, about 31,000 sequences went through this assay and about 1,400 (4.5%) were called active.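 The calls were made as follows: active = median seed-adjusted z-score above 1 or below -1; inactive = the rest.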 The list shows a part of the results.
# Assay: Novel Modifiers of Survival Motor Neuron (SMN) Protein: Gene Identification via Genome-wide siRNA Screen;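 also: luminescence tracks full-length SMN protein made from the SMN2 reporter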
# Settings: HEK293T SMN2-luciferase reporter, siRNA knockdown, 72 h; actives lie on both sides
# Method in brief: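 Steps: spot 1 pmol siRNA, add Lipofectamine RNAiMax in serum-free DMEM, seed HEK293T SMN2–luciferase reporter cells; incubate 72 h at 37 °C; add ONE-Glo; normalize luminescence to control siRNA, log10, MAD. Candidates: |MAD| > 1.0.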
row,Sequence,median seed-adjusted z-score
1,GGAUGGAAAUCAAGUUCGATT against NSUN4,inactive: -0.491
2,GAAGGUCCUCUGUUACUAUTT against SMARCAD1,inactive: -0.198
3,AGUCUGUUGGUGCACAAAATT against MDM2,inactive: 0.258
4,GAGUGGAAGUUGACCUUGUTT against RNF215,inactive: -0.889
5,CCACCUUCAAUAUCGAGUUTT against DRD3,inactive: 0.0447
6,AGAGAGUUGUUAAUGAGGUTT against DUS2L,inactive: -0.705
7,CAUUCGAUUCAGAUCAAAATT against LAMA3,inactive: 0.534
8,GGCAUUGCAGCAUCUCAAATT against GCKR,inactive: 0.454
9,GGGCUAUGACUAUAGCUAUTT against TYR,inactive: 0.131
10,CCCAGAUCGUGACCCAGUATT against GIPR,inactive: 0.475
11,GGAUCCGGCUAAAGAAAUATT against IMPDH2,inactive: 0.119
12,CCCUGAUGGUAAUUGCGUUTT against LRP1B,inactive: -0.0589
13,UGAUGAAGGUUGCACUCCATT against TAF6L,inactive: 0
14,GCUGAGGACUUUAAUAUCUTT against GPR175,inactive: 0.245
15,CAUCAAUUCUUAGUGCAAATT against SERPINB10,inactive: 0.00387
16,GGAAGACCUACUUUACCGATT against FREQ,inactive: -0.353
17,GGACUCAUGCAUCAUGAAATT against GPR37L1,inactive: -0.0348
18,CAACUAAUAGAAUAUGGAATT against ATG4C,inactive: -0.414
19,GAGUGCACGUGAUAGAGCATT against TBX22,inactive: 0.0269
20,CCUCUAACCUUAGAUGAAATT against GTF2E2,active: -1.32
21,GUAAGCAUUUUAAUUCCAATT against CLCA3,inactive: 0.424
22,GGUGAUGAAAGAAUUGAAATT against PAK2,inactive: 0.122

row,Sequence,median seed-adjusted z-score
1,AGAUGAUCGCUGAGUUCAATT against TNNC2,inactive: -0.773
2,UGAUGAUCAUCACUGAGUATT against EPHA2,inactive: 0.0948
3,GCACUUGACAAUGAUCAAATT against S1PR3,inactive: -0.0931
4,CGUGAGUAGCGGUGAUGUATT against AAK1,inactive: 0.27
5,GGUGCUACAUCAACUCAGATT against CNKSR3,inactive: 0
6,GGAUGACUCCAGAUUCUAUTT against PIGA,inactive: -0.0514
7,CGCCUGGUGGUGUACGUUUTT against ATG4D,inactive: -0.216
8,CCCACAACAUCAUCCAAGATT against CLDN4,inactive: -0.0241
9,GAGUUGAAAAUGACAAUGATT against CLSTN1,inactive: 0.0811
10,GUCUUCUCCUUUUACCUCATT against NAPSA,inactive: -0.336
11,GCUCAGGACUGUUGCCUCATT against CCL21,inactive: -0.227
12,AGAAAGCUUUGGGCAAAUATT against EEF1B2,inactive: 0.388
13,GCCUGAUACAAAAUCAACATT against TRPC5,active: -1.14
14,CCACCUCAGCAUUACCGUUTT against RUNX1T1,inactive: 0.181
15,GCACAGAGGACAUACGGAUTT against BSPRY,inactive: -0.399
16,GACUAUAAGCUGCGAAUUATT against MFN2,inactive: -0.0968
17,UCAUCUUCGUUAGUGCAGATT against NXN,inactive: 0.175
18,CCCUCAAGGUACAAACAUUTT against POLD1,inactive: -0.715
19,CCCUUUCAUUUGCGACUGUTT against SLIT1,inactive: 0.12
20,GCACCUAUCUUGACCUGCUTT against CTSC,inactive: 0
21,CCACCCUAGUUAGACAUCATT against ZNF419,inactive: 0.0405
22,AGUUCUACAUGCCGGAUGATT against GGTLC1,inactive: -0.298

row,Sequence,median seed-adjusted z-score
1,CCCUAUGAGUGUCACGAUUTT against ZNF135,inactive: 0.038
2,GGAUCUCCCUACUACGAUATT against RND1,inactive: -0.393
3,GGAGAACACGAGGCAGGAATT against ZFYVE19,inactive: 0.0704
4,GCUACAACUGGAUAAGGAATT against FTSJ1,inactive: 0.0774
5,CUUUAAUUAUGACCCACAATT against ZNF566,inactive: 0.0702
6,GCUAGAUGUUUACAACGGATT against ACPP,inactive: 0.311
7,GAUCAACGGUUCACGGGAATT against PNLIPRP3,inactive: -0.287
8,CCUUGAUAGUUCAAUAUGATT against CLGN,inactive: 0.18
9,CACCUAUCCUCAAAACUUATT against ZNF117,inactive: 0.616
10,GGAAGAUCCAAGAUUGAAATT against NEDD4,inactive: 0.454
11,GGAUUACUGCAUUAAACGATT against BUB1B,inactive: -0.579
12,GUGACGUACAAAAACCUUATT against ARL1,inactive: 0.347
13,ACCAAGAGUUCGCAUCUGATT against KLF2,inactive: 0.359
14,CCCUAACCCGUUUCCCGAATT against KIFC2,inactive: 0.932
15,CUAUGCUACUGUACCAGAATT against CSRP2BP,inactive: -0.526
16,GCGAGGGCCUUUUUGAGUATT against CRYAA,active: -1.03
17,CCUUAAGUGCUCUUACUGATT against BNIP1,inactive: 0.259
18,GUCCUACAUUGAAUGCAAUTT against NR1I2,inactive: -0.922
19,GAGGUUUUAUAUAACCGAUTT against SMC6,inactive: 0.227
20,GGACUUGGUCUUACAACUATT against PLK4,inactive: -0.0888
21,GAGUAGCAGGAAAAACGAATT against SNX13,inactive: 0.253
22,GAAUCACCAGCUAAACUAUTT against STARD6,inactive: 0.0605

row,Sequence,median seed-adjusted z-score
1,GGACAAAGCAUUGACAAUUTT against KCNJ13,inactive: 0.327
2,GAAGAAGCUUUGCUCCUGATT against VNN3,inactive: 0.343
3,CAGCUGCGGGAGAUAAUGATT against ANXA8L2,inactive: -0.147
4,GGAGACUGAUAUACACUUATT against GDPD4,inactive: 0.0109
5,GCCUUUUGGAGGUUCAUAATT against BAI2,inactive: -0.114
6,CCCAGUUUCUAGUCUGCUATT against SHKBP1,inactive: 0.345
7,GGAAAAUCUUAAACGGCUATT against PIK3AP1,inactive: 0.0678
8,GGAUGUACUCUGUUUAUUATT against RBM19,inactive: 0.204
9,ACACCAUGAUGAAGACUCATT against IRAK2,inactive: -0.06
10,CCACUACUGGAAUUCGGAATT against EP300,inactive: -0.2
11,GUCUCUCAGGUAAUCCUUATT against SYT11,inactive: 0.29
12,CCAUGGACGAGGAACAGGUTT against TESC,inactive: -0.17
13,GUACAAGAGAUAAUGCAAATT against TFPI,inactive: -0.0076
14,CGCAUGGACUUACACCAAUTT against KCNH7,inactive: 0.0639
15,GGAGACAAAUUCUUCCUGATT against LMO1,inactive: 0.104
16,GGGCGAGUAUGACCGAUCATT against CTRL,inactive: 0.0758
17,GAGACUAAAUCACAACAAATT against KERA,inactive: 0.238
18,CCAGCUAUUUUUAAGAGUUTT against CHRNA6,inactive: 0.21
19,AGAGGACAUUAGGACUUCATT against ZMYND12,inactive: 0.0551
20,CAUUAGGAGUGUGCACAUUTT against SLC22A4,inactive: -0.474
21,GCACAUGUCAGACAUGGUATT against HDC,inactive: -0.0146
22,UCAUUGCAAAGUUCCUUAATT against NAIP,inactive: -0.172

# 6 neighbouring records from above:
row,Sequence,median seed-adjusted z-score
14,CGCAUGGACUUACACCAAUTT against KCNH7,inactive: 0.0639
15,GGAGACAAAUUCUUCCUGATT against LMO1,inactive: 0.104
16,GGGCGAGUAUGACCGAUCATT against CTRL,inactive: 0.0758
17,GAGACUAAAUCACAACAAATT against KERA,inactive: 0.238
18,CCAGCUAUUUUUAAGAGUUTT against CHRNA6,inactive: 0.21
19,AGAGGACAUUAGGACUUCATT against ZMYND12,inactive: 0.0551

# (listing goes on)

row,Sequence,median seed-adjusted z-score
1,AGGAGGUAGAUGAAUCCAATT against PPP1R9B,inactive: -0.244
2,GCAGGAAAAUGGUUCCUCATT against MKL1,inactive: -0.138
3,CGAGAUUUUGUAGAGCACATT against PCK2,inactive: 0.318
4,GGAUUAGAACAAUAUCUCATT against UBR2,inactive: 0.632
5,GGAUCCACAUCGGAGAAAATT against ZNF629,inactive: 0.0602
6,GAAAUUUCAUCUCAAGGAUTT against GTF2A1,inactive: -0.0209
7,AGACCAUUGUUUCAGACCATT against SHROOM1,inactive: 0.0461
8,AGGAGGAUGCGAAACCCAATT against ACCN4,inactive: -0.512
9,GAGAGGAUUGUGACCAUCATT against PCBP3,inactive: -0.0373
10,GAAUGGAUCUUACUAAGGUTT against OSBPL9,inactive: -0.958
11,GACGUGUACUUUGUCAACATT against GPR146,inactive: 0.405
12,CCAUAAACAGUACUACGAATT against ITIH1,inactive: 0.0403
13,GGAGAAGAGCAACACCAUUTT against ZNF23,inactive: -0.106
14,GGAAUGCAAGAGUCAUGAATT against ZNF473,inactive: -0.166
15,GCAUGUAUCUGCUUGAUAUTT against ODC1,active: -1.64
16,GAGUGAUAUGGAUAGUGAATT against TTC18,active: -1.15
17,GCAUCAUCCACUCAAUUUUTT against ANTXR1,inactive: -0.0849
18,UGGAAAACCUAAUCACCUATT against PGLYRP4,inactive: 0.13
19,GCUACCUUCUGAUGUUGUATT against OAT,inactive: -0.0231
